Data: patent publication US20260151538A1, “DIFFERENTIATION AND REPROGRAMMING OF CHONDROCYTE” (ADA Forsyth Institute, Inc., priority 2022, published 2026)
“Also recorded” adds a separate entry of the source. For at least one compound, name, drawing or mass did not settle the structure.

Experiments:
ATDC5 cells = assay: ATDC5 micro-mass culture chondrogenesis, alcian blue staining; type: cell-based, mouse; conditions: ATDC5 cells in micro-mass culture; DHA at 0, 1, 5, 25 and 125 μM; quantified with ImageJ
Excerpt: To further investigate the beneficial effects of GATA3 stimulation on cartilage regeneration, the inventors examined GATA3 activators in chondrogenesis. Using the ATDC5 cell line derived from mouse teratocarcinoma (undifferentiated embryonal carcinoma that can give rise to all three germ layers), the inventors first cultured the cells in micro-mass followed by differentiation into chondrocytes. Next, the inventors testes if the addition of GATA3 activators to the micro-mass culture could promote chondrogenesis. Staining was then performed to detect chondrogenic cells, which were positive for alcian blue. Imaging and quantitative analysis was then carried out to determine the percentage of the positively stained area using ImageJ.

GATA3 = conditions: literature reports (Attakpa 2009; Gocke 2009; Ahmad 2017); cited from earlier work

CC/C=C\C/C=C\C/C=C\C/C=C\C/C=C\C/C=C\CCC(=O)O [DHA, Docosahexaenoic acid]
chondrocyte differentiation / chondrogenesis (percentage of alcian blue positively stained area) (ATDC5 cells): stimulated chondrocyte differentiation in a dosage-dependent manner; also recorded: increased by DHA in a dosage-dependent effect
GATA3 expression (transcripts and proteins) (GATA3): enhance GATA3 expression; also recorded: enhance GATA3 transcripts and proteins
